Experimental data from patent publication US20240197804A1, “PHARMACEUTICAL AND NUTRACEUTICAL COMPOSITION COMPRISING A MIXTURE OF PLANTS FOR THE PREVENTION AND TREATMENT OF NEURODEGENERATIVE DISEASES” (LABORATOIRE AROMA SCIENCE, priority 2021, published 2024).

Experiments:
[1] = test system: mice intoxicated with the Aβ 25-35 peptide; assay: Spontaneous alternation behavior test in a Y-maze (spatial working memory); type: in vivo, mouse; settings: daily oral administration of 1 mg/kg, D-14 to D10; test at D8
[2] = test system: mice intoxicated with the Aβ 25-35 peptide; assay: Passive avoidance test (long-term contextual memory); type: in vivo, mouse; settings: daily oral administration of 1 mg/kg

COc1cc2c(cc1OC)C(=O)C(CC1CCN(Cc3ccccc3)CC1)C2 (centres unmarked) [Donepezil]
deleterious effect of Aβ 25-35 on spatial working memory (spontaneous alternation) [1]: significantly avoided | deleterious effect of Aβ 25-35 on long-term contextual memory (passive avoidance) [2]: significantly avoided
